Source: PubChem BioAssay AID504793 (Drosophila RNAi Screening Center, 2011)
Aim: 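Genes required for cells to halt at G2/M after double-strand DNA breaks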 (primary screen). Cell system: Drosophila S2R+ cells. Reagents: long dsRNA against Drosophila genes, about 0.25 µg dsRNA per well. Time to read-out: 4 days of dsRNA, then 4 hours of drug before read-out. Conditions: doxorubicin 0.5 µM for 4 hours to cause double-strand breaks, in cells also given a low, harmless dose of dsRNA against nbs to sensitise the assay. Measured: 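Per-well count of mitotic cells stained for phospho-histone H3 after doxorubicin exposure, used as mitotic index; counts are raw and not normalised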. Direction: mitotic cells: higher = more cells in mitosis, weaker G2 arrest. Hit rule: 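Genes are called active only when high mitotic counts were reproduced with independent dsRNAs and mitosis was checked for delay without damage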. Meaning of the calls: active = confirmed in follow-up tests; inactive = not confirmed.
In all, the deposit lists about 23,000 reagents; this is a random part of those with a known target gene and a result. Over the whole deposit, 62 (0.27%) are marked active. 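Calls come from follow-up tests whose scores are not deposited, so confirmed genes may have low counts here; counts are not normalised per plate.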 Raw values vary from plate to plate and are shown uncorrected. The numbers tell different reagents against one gene apart. A plus sign joins genes that one reagent is predicted to hit. No sequences are given here.

gene knocked down	dsRNA no.	mitotic cells, replicate 1	call
CheA29a (Chemosensory protein A 29a)	1	9	inactive
Nep1 (Neprilysin 1)	1		inactive
Nep1 (Neprilysin 1)	2	7	inactive
Mst98Ca (Male-specific RNA 98Ca)	1	8	inactive
CG9649	1	6	inactive
CG9649	2	10	inactive
CG6614	1	4	inactive
MESK2 + CG10494	1	4	inactive
bs (blistered)	1	11	inactive
bs (blistered)	2	7	inactive
Tmem214 (Transmembrane protein 214)	1	6	inactive
Tmem214 (Transmembrane protein 214)	2	6	inactive
Tmem214 (Transmembrane protein 214)	3	9	inactive
Or49b (Odorant receptor 49b)	1	7	inactive
COX6AL2 + Ir75d	1	4	inactive
EMC2B + EMC2A	1	2	inactive
TTLL1A (Tubulin tyrosine ligase-like 1A)	1	6	inactive
CG42541	1	13	inactive
CG42541	2	7	inactive
CG42541	3	8	inactive
CG42541	4	1	inactive
Amy-d (Amylase distal)	1	5	inactive
CG3009	1	5	inactive
CG3009	2	2	inactive
Jon99Fi (Jonah 99Fi)	1	3	inactive
nocte (no circadian temperature entrainment)	1	9	inactive
nocte (no circadian temperature entrainment)	2	5	inactive

In a second layout: 3 of the entries above.
{"gene knocked down":"Or49b (Odorant receptor 49b)","dsRNA no.":1,"mitotic cells, replicate 1":7,"call":"inactive"}
{"gene knocked down":"COX6AL2 + Ir75d","dsRNA no.":1,"mitotic cells, replicate 1":4,"call":"inactive"}
{"gene knocked down":"EMC2B + EMC2A","dsRNA no.":1,"mitotic cells, replicate 1":2,"call":"inactive"}

The list goes on.
gene knocked down	dsRNA no.	mitotic cells, replicate 1	call
CG15029 (retired record)	1	16	inactive
CG15029 (retired record)	2	13	inactive
CG10366	1	5	inactive
CG10366	2	5	inactive
Bdbt (Bride of doubletime)	1	12	inactive
CG7011	1	6	inactive
CG7011	2	5	inactive
CG13896	1	3	inactive
mthl8 (methuselah-like 8)	1	3	inactive
mthl8 (methuselah-like 8)	2	8	inactive
CG30457	1	6	inactive
CG30457	2	4	inactive
Idgf5 (Imaginal disc growth factor 5)	1	5	inactive
Idgf5 (Imaginal disc growth factor 5)	2	13	inactive
dila (dilatory)	1	3	inactive
dila (dilatory)	2	3	inactive
Creld (Cysteine rich with EGF like domains)	1	5	inactive
Creld (Cysteine rich with EGF like domains)	2	11	inactive
